Laboratory results taken from the supplement of paper PMC10849652.
The list shows a part of the results.

The chains behind the UniProt entries cited, without tags or fusion partners. Where a name states a change or a piece, a line headed by the entry shows the natural chain unless it says otherwise.
UniProt Q9BSJ2, whole entry, looked up: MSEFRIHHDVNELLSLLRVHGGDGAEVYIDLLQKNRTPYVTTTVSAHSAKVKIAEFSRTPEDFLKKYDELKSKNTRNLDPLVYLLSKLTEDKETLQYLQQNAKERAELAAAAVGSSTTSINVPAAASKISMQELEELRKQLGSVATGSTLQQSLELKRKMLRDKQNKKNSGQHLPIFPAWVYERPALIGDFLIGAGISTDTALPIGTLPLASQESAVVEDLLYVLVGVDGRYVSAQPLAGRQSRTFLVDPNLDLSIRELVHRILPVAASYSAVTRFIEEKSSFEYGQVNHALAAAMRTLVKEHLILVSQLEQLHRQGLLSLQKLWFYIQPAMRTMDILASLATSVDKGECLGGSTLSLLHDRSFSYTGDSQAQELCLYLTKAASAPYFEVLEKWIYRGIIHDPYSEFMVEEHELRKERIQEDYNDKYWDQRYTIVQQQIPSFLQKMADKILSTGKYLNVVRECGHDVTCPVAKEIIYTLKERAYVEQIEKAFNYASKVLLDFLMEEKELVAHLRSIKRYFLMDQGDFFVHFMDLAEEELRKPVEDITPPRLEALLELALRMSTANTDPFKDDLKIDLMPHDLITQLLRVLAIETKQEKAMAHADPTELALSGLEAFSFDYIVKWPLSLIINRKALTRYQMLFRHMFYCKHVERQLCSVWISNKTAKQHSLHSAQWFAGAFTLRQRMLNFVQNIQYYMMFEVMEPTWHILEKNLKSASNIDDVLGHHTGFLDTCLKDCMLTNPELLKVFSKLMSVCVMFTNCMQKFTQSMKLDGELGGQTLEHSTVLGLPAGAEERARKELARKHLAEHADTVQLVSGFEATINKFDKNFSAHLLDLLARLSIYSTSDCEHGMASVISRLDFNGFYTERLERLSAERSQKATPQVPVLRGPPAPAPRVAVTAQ
UniProt Q969E8: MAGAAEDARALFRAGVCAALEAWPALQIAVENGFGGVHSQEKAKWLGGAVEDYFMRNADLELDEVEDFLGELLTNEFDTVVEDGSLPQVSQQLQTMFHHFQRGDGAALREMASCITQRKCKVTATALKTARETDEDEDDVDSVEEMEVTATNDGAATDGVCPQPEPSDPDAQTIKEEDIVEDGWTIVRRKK
UniProt Q8N5M4: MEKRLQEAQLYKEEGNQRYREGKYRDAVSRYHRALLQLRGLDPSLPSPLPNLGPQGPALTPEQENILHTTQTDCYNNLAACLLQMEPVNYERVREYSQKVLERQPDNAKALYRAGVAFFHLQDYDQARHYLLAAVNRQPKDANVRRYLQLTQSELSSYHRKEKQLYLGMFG
UniProt P10599: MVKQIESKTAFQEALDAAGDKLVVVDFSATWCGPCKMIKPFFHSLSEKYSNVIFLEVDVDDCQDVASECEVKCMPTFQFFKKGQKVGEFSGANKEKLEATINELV
UniProt Q8NG11: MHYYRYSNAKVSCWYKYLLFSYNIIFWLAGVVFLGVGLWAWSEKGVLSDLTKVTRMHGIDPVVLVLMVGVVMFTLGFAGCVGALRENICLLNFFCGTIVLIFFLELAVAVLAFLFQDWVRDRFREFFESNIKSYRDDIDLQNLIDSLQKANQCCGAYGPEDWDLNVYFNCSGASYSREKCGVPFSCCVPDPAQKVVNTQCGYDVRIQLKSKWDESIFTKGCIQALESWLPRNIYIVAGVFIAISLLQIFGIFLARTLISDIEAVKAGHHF
UniProt Q9BRA2: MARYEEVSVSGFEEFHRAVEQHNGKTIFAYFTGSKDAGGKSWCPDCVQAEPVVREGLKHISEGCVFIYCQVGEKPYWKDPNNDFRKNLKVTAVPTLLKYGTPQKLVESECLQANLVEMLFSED
UniProt Q13885, whole entry, looked up: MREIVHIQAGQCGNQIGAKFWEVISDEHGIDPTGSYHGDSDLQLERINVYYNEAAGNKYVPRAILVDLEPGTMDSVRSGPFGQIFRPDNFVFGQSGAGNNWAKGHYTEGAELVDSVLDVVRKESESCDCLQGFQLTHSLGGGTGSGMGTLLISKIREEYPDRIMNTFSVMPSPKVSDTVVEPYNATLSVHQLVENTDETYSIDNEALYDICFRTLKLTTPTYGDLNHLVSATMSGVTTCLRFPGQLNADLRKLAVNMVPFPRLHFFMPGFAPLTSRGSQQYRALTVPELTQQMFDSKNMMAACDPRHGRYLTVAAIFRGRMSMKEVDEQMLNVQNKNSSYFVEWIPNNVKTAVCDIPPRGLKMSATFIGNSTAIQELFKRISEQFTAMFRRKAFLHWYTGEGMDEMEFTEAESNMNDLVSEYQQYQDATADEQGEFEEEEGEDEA
UniProt P0DPH7, whole entry, looked up: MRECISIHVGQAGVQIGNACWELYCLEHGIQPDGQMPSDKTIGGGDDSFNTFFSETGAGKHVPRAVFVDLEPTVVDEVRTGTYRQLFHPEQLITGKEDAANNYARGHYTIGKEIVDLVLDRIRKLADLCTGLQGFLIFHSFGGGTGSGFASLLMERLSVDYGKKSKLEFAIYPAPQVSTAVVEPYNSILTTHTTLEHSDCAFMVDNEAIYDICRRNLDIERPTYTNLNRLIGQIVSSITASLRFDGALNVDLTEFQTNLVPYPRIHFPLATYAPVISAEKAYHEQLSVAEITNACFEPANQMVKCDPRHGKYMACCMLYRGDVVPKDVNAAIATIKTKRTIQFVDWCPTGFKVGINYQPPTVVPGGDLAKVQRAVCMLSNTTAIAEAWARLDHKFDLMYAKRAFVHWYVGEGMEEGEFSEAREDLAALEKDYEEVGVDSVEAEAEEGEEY
UniProt Q14166: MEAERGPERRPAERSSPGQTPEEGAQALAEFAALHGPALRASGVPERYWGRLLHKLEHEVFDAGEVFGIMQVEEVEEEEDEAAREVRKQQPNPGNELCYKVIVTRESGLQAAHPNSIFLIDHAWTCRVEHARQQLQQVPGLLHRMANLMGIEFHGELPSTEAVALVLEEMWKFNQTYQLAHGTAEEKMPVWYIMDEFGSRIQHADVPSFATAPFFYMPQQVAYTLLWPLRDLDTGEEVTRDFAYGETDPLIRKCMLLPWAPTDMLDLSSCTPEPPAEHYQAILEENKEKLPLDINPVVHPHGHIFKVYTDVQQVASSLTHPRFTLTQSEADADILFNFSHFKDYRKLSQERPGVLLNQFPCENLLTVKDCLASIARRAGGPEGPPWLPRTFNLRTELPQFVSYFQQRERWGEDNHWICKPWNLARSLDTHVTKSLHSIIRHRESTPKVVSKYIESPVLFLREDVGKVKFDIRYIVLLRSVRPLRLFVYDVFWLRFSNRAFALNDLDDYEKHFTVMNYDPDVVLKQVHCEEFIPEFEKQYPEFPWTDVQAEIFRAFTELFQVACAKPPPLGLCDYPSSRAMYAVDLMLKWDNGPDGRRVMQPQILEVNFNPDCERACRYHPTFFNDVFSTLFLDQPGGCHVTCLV
UniProt P40222: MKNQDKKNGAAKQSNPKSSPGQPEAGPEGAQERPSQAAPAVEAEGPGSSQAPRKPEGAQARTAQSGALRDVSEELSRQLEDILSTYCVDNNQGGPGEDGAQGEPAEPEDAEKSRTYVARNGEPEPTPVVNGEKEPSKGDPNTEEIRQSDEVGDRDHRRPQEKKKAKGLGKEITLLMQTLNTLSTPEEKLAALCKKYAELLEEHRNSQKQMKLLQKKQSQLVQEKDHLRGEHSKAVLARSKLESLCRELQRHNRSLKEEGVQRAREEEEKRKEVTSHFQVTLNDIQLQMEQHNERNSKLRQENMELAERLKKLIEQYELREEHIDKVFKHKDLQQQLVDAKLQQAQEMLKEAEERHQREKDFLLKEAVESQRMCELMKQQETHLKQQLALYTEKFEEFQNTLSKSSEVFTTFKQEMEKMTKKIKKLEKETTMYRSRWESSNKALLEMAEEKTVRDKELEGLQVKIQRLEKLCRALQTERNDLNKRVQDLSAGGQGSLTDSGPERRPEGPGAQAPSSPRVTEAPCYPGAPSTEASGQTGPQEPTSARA
UniProt O15042: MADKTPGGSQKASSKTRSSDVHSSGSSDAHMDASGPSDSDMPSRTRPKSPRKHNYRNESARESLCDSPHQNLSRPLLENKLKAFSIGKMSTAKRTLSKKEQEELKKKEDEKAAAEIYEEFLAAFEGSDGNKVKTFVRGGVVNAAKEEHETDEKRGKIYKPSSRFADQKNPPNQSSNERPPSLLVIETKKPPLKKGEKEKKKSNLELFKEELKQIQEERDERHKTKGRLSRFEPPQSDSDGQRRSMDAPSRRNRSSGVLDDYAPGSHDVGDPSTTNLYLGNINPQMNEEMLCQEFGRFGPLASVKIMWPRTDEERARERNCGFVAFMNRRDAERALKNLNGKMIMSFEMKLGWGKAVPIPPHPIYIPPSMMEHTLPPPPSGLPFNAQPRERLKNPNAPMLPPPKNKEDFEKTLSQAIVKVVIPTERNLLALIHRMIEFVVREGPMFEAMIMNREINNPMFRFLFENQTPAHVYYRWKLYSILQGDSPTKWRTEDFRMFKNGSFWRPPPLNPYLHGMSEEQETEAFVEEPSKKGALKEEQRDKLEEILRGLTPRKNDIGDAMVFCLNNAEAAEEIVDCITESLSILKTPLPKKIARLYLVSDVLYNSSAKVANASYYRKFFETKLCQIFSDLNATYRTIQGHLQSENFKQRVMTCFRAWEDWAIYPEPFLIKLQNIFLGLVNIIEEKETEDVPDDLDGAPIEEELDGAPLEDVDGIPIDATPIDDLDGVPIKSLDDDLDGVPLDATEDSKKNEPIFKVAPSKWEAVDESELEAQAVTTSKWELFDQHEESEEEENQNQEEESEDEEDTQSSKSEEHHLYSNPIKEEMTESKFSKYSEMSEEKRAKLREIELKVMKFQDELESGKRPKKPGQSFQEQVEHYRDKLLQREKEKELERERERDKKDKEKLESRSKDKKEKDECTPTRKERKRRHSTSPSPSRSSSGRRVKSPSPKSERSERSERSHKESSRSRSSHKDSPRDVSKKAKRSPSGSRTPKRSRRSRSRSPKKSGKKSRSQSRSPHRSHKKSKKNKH
UniProt P61088: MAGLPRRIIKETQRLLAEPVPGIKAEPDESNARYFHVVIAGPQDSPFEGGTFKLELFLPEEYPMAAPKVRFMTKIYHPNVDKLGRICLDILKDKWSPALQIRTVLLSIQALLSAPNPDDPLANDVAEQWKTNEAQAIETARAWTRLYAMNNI
UniProt Q9NPD8: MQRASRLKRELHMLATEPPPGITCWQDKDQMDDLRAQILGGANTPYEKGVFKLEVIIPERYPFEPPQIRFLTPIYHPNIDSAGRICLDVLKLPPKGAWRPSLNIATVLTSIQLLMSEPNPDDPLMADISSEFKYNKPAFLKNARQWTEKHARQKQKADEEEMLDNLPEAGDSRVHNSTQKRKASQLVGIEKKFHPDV
UniProt P83876: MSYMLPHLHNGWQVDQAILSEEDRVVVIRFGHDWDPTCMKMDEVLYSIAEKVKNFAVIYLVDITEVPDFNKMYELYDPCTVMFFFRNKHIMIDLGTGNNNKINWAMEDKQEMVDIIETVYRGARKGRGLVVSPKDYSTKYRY
UniProt Q16222: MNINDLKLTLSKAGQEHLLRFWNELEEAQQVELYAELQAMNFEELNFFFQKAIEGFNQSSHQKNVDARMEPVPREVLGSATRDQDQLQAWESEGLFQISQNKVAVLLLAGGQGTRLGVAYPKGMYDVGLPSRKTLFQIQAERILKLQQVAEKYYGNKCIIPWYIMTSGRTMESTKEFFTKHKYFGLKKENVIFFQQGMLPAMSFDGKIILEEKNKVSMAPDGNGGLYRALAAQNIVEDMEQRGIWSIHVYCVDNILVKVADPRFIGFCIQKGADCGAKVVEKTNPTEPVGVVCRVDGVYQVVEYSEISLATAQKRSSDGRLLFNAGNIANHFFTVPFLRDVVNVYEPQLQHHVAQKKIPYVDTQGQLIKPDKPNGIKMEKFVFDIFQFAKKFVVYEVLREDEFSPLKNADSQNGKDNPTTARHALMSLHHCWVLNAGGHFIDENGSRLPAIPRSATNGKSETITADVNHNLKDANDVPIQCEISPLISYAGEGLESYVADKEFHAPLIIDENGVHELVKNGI
UniProt Q96J42: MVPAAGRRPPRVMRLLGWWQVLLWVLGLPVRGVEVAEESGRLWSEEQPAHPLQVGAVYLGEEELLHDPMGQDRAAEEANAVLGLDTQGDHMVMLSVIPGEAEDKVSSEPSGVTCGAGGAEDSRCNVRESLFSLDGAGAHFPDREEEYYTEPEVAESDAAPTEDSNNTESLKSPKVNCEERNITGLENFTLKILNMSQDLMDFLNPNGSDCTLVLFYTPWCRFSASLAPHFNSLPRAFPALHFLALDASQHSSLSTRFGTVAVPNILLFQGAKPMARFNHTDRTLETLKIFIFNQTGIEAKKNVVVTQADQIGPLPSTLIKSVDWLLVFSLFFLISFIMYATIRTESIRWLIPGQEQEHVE

Columns and labels:
Test in all cases: log2 fold change, soluble protein after heating vs DMSO (PISA); higher = thermal stabilisation; K562 cells, 10 uM, 30 min; active = over 0.2 and 3.5 SD of the protein, either way, in both replicates (recomputed)
[1] = compound: CC[C@@H]1C(=O)N(C)c2cnc(Nc3ccc(C(=O)NC4CCN(C)CC4)cc3OC)nc2N1C1CCCC1
Procedure, shortened: (§1)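 For each measurement, 10 μM compound was applied for 30 min to K562 cells at 2×10^6 cells/mL. Aliquots were heated for 3 min across 48°C-58°C, pooled, and extracted in PBS with 0.5% NP-40 at 4°C; the supernatant after 21,000xg for 90 min was soluble protein. This was quantified by TMTpro 16plex LC-MS/MS with channel sums equalised, and thermal stability was reported relative to control samples from duplicates, on a log2 fold-change scale.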

volasertib = compound: CC[C@@H]1C(=O)N(C)c2cnc(Nc3ccc(C(=O)N[C@H]4CC[C@H](N5CCN(CC6CC6)CC5)CC4)cc3OC)nc2N1C(C)C [volasertib]
Procedure, shortened: as §1

[2] = compound: CC[C@H](C)N1C=C(C2=C(C=C(C=C21)C3=CN=C(C=C3)N4CCNCC4)C(=O)NCC5=C(C=C(NC5=O)C)C)C
Procedure, shortened: as §1

epoxomicin = compound: CC[C@H](C)[C@@H](C(=O)N[C@@H]([C@@H](C)O)C(=O)N[C@@H](CC(C)C)C(=O)[C@]1(CO1)C)NC(=O)[C@H]([C@@H](C)CC)N(C)C(=O)C [epoxomicin]
Procedure, shortened: as §1

[3] = compound: CCn1c(C(=O)N(C2CC2)C2CC2)cc2c3c(ncn3C)c(Nc3cc(C)n(C)n3)nc21
Procedure, shortened: as §1

[4] = compound: CCn1cc(-c2ccnc3[nH]c(-c4cccc(CN(C)C)c4)cc23)c(-c2ccc(NC(=O)N(C)C)cc2)n1
Procedure, shortened: as §1

[5] = compound: CN(C)CC(=O)Nc1ccc2[nH]c(=O)c3ccccc3c2c1
Procedure, shortened: as §1

rosiglitazone = compound: CN(CCOC1=CC=C(C=C1)C[C@H]2C(=O)NC(=O)S2)C3=CC=CC=N3 (racemic) [rosiglitazone]
Procedure, shortened: as §1

[6] = compound: CN1C2=C(C3=C1C(=O)N(N=C3)CC4=CC(=CC=C4)N)SC(=C2)S(=O)C
Procedure, shortened: as §1

[7] = compound: CN1CCC(CNc2ccc3ncc(-c4cccc(OC(F)(F)F)c4)n3n2)CC1
Procedure, shortened: as §1

saracatinib = compound: CN1CCN(CCOc2cc(OC3CCOCC3)c3c(Nc4c(Cl)ccc5c4OCO5)ncnc3c2)CC1 [saracatinib]
Procedure, shortened: as §1

sotrastaurin = compound: CN1CCN(c2nc(C3=C(c4c[nH]c5ccccc45)C(=O)NC3=O)c3ccccc3n2)CC1 [sotrastaurin]
Procedure, shortened: as §1

alvocidib = compound: CN1CC[C@H](c2c(O)cc(O)c3c(=O)cc(-c4ccccc4Cl)oc23)[C@H](O)C1 [alvocidib]
Procedure, shortened: as §1

Tubastatin A = compound: CN1CCc2c(c3ccccc3n2Cc2ccc(C(=O)NO)cc2)C1 [Tubastatin A]
Procedure, shortened: as §1

[8] = compound: CNC(=O)C1=CC=CC=C1NC2=NC(=NC=C2Cl)NC3=C(C=C(C=C3)N4CCOCC4)OC
Procedure, shortened: as §1

defactinib = compound: CNC(=O)c1ccc(Nc2ncc(C(F)(F)F)c(NCc3nccnc3N(C)S(C)(=O)=O)n2)cc1 [defactinib]
Procedure, shortened: as §1

rucaparib = compound: CNCc1ccc(-c2[nH]c3cc(F)cc4c3c2CCNC4=O)cc1 [rucaparib]
Procedure, shortened: as §1

[9] = compound: CNc1nc(-c2ccc3c(N)n[nH]c3c2)cc(N2C[C@@H](C(=O)NC3CCCCC3)CC[C@H]2C)n1
Procedure, shortened: as §1

encorafenib = compound: COC(=O)N[C@@H](C)CNc1nccc(-c2cn(C(C)C)nc2-c2cc(Cl)cc(NS(C)(=O)=O)c2F)n1 [encorafenib]
Procedure, shortened: as §1

[10] = compound: COC(=O)[C@H](CCSC)NC(=O)C1=C(C=C(C=C1)NC[C@H](CS)N)C2=CC=CC=C2
Procedure, shortened: as §1

Measured: log2 fold change

TUBGCP2 isoform 4 (UniProt Q9BSJ2)
inactive: [1] 0 | volasertib -0.138 | [2] 0.272 | epoxomicin 0.039 | [3] -0.088 | [4] -0.008 | [5] -0.005 | rosiglitazone -0.025 | [6] 0.153 | [7] -0.114 | saracatinib -0.099 | sotrastaurin -0.27 | alvocidib 0.069 | Tubastatin A 0.202 | [8] -0.04 | defactinib 0.06 | rucaparib 0.338 | [9] 0.075 | encorafenib 0.137 | [10] -0.075

TSR2 (UniProt Q969E8)
inactive: [1] -0.098 | volasertib -0.213 | [2] 0.025 | epoxomicin -0.027 | [3] 0.012 | [4] 0.022 | [5] 0.059 | rosiglitazone 0.016 | [6] -0.039 | [7] -0.056 | saracatinib 0.024 | sotrastaurin 0.07 | alvocidib -0.162 | Tubastatin A 0.109 | [8] 0.041 | defactinib -0.043 | rucaparib -0.041 | [9] -0.045 | encorafenib 0.055 | [10] 0.007

TTC9C (UniProt Q8N5M4)
inactive: [1] -0.047 | volasertib -0.156 | [2] 0.031 | epoxomicin -0.011 | [3] -0.011 | [4] -0.092 | [5] 0.065 | rosiglitazone 0.048 | [6] -0.038 | [7] -0.024 | saracatinib -0.032 | sotrastaurin -0.08 | alvocidib -0.053 | Tubastatin A 0.059 | [8] 0.092 | defactinib -0.083 | rucaparib 0.017 | [9] -0.063 | encorafenib 0.032 | [10] -0.042

TXN (UniProt P10599)
inactive: [1] -0.017 | volasertib 0.115 | [2] -0.033 | epoxomicin 0.032 | [3] 0.056 | [4] -0.052 | [5] -0.032 | rosiglitazone -0.037 | [6] -0.027 | [7] -0.029 | saracatinib 0.049 | sotrastaurin 0.07 | alvocidib -0.001 | Tubastatin A -0.041 | [8] -0.024 | defactinib -0.01 | rucaparib -0.06 | [9] -0.029 | encorafenib -0.013 | [10] 0.08

TSPAN14 (UniProt Q8NG11)
inactive: [1] 0.17 | volasertib 0.047 | [2] -0.12 | epoxomicin 0.008 | [3] 0.022 | [4] 0.014 | [5] -0.006 | rosiglitazone 0.067 | [6] -0.063 | [7] 0.033 | saracatinib 0.055 | sotrastaurin 0.034 | alvocidib -0.011 | Tubastatin A -0.052 | [8] -0.06 | defactinib -0.006 | rucaparib -0.052 | [9] -0.014 | encorafenib 0.025 | [10] 0.069

TXNDC17 (UniProt Q9BRA2)
inactive: [1] -0.077 | volasertib -0.08 | [2] 0.034 | epoxomicin 0.016 | [3] 0.052 | [4] 0.072 | [5] 0.007 | rosiglitazone -0.078 | [6] -0.018 | [7] -0.132 | saracatinib 0.019 | sotrastaurin -0.046 | alvocidib -0.041 | Tubastatin A 0.022 | [8] -0.004 | defactinib -0.052 | rucaparib 0.004 | [9] -0.029 | encorafenib -0.022 | [10] 0.022

TUBB2A (UniProt Q13885)
inactive: [1] -0.025 | volasertib 0.065 | [2] -0.015 | epoxomicin 0.059 | [3] -0.009 | [4] -0.067 | [5] -0.054 | rosiglitazone 0.011 | [6] -0.046 | [7] -0.141 | saracatinib 0.048 | sotrastaurin 0.032 | alvocidib -0.004 | Tubastatin A -0.07 | [8] -0.069 | defactinib 0.003 | rucaparib -0.052 | [9] -0.024 | encorafenib -0.02 | [10] 0.052

TUBA3C (UniProt P0DPH7)
inactive: [1] -0.037 | volasertib -0.07 | [2] 0.005 | epoxomicin 0.07 | [3] -0.015 | [4] -0.028 | [5] -0.021 | rosiglitazone 0.04 | [6] -0.093 | [7] -0.179 | saracatinib 0.065 | sotrastaurin 0.051 | alvocidib -0.032 | Tubastatin A -0.08 | [8] -0.03 | defactinib -0.029 | rucaparib -0.053 | [9] 0.014 | encorafenib 0.187 | [10] 0.012

TTLL12 (UniProt Q14166)
inactive: [1] 0.024 | volasertib -0.262 | [2] 0.161 | epoxomicin -0.097 | [3] -0.109 | [4] 0.064 | [5] -0.042 | rosiglitazone -0.136 | [6] 0.337 | [7] 0.289 | saracatinib -0.131 | sotrastaurin -0.21 | alvocidib 0.115 | Tubastatin A 0.073 | [8] -0.025 | defactinib 0.034 | rucaparib 0.571 | [9] 0.019 | encorafenib 0.292 | [10] -0.057

TXLNA (UniProt P40222)
inactive: [1] -0.011 | volasertib 0.023 | [2] 0.034 | epoxomicin 0.069 | [3] -0.002 | [4] 0 | [5] -0.005 | rosiglitazone 0.024 | [6] -0.06 | [7] 0.038 | saracatinib 0.014 | sotrastaurin 0.019 | alvocidib -0.085 | Tubastatin A 0.016 | [8] -0.01 | defactinib -0.056 | rucaparib -0.022 | [9] 0 | encorafenib 0.01 | [10] 0.008

U2SURP (UniProt O15042)
inactive: [1] -0.114 | volasertib -0.356 | [2] 0.133 | epoxomicin 0.019 | [3] -0.092 | [4] 0.061 | [5] 0.076 | rosiglitazone -0.015 | [6] 0.09 | [7] -0.073 | saracatinib -0.006 | sotrastaurin -0.133 | alvocidib -0.215 | Tubastatin A 0.108 | [8] -0.102 | defactinib -0.279 | rucaparib 0.104 | [9] -0.031 | encorafenib 0.141 | [10] -0.116

UBE2N (UniProt P61088)
inactive: [1] -0.011 | volasertib -0.008 | [2] -0.01 | epoxomicin 0.049 | [3] 0.008 | [4] 0.083 | [5] 0.013 | rosiglitazone 0.04 | [6] -0.021 | [7] -0.054 | saracatinib -0.002 | sotrastaurin -0.021 | alvocidib -0.017 | Tubastatin A 0.037 | [8] -0.027 | defactinib 0.024 | rucaparib -0.043 | [9] 0.004 | encorafenib -0.018 | [10] -0.032

UBE2T (UniProt Q9NPD8)
inactive: [1] 0.002 | volasertib -0.098 | [2] 0.057 | epoxomicin 0 | [3] -0.06 | [4] -0.043 | [5] 0.016 | rosiglitazone 0.062 | [6] -0.042 | [7] -0.033 | saracatinib -0.032 | sotrastaurin -0.045 | alvocidib -0.06 | Tubastatin A 0.138 | [8] -0.005 | defactinib -0.035 | rucaparib -0.049 | [9] 0.004 | encorafenib -0.027 | [10] -0.015

TXNL4A (UniProt P83876)
inactive: [1] 0.017 | volasertib 0.057 | [2] -0.011 | epoxomicin -0.029 | [3] 0.022 | [4] -0.043 | [5] -0.048 | rosiglitazone 0.024 | [6] -0.003 | [7] -0.083 | saracatinib 0.077 | sotrastaurin 0.067 | alvocidib -0.007 | Tubastatin A -0.013 | [8] -0.026 | defactinib 0.03 | rucaparib -0.016 | [9] -0.039 | encorafenib -0.045 | [10] -0.023

UAP1 (UniProt Q16222)
inactive: [1] -0.026 | volasertib 0.016 | [2] 0.011 | epoxomicin 0.033 | [3] -0.015 | [4] -0.066 | [5] -0.005 | rosiglitazone 0.021 | [6] -0.089 | [7] -0.029 | saracatinib -0.006 | sotrastaurin 0.012 | alvocidib -0.06 | Tubastatin A -0.019 | [8] 0.116 | defactinib 0.011 | rucaparib -0.014 | [9] -0.018 | encorafenib -0.017 | [10] 0

Pulled one by one from the list above (2):
UAP1 (UniProt Q16222)
inactive: [1] -0.026 | volasertib 0.016 | [2] 0.011 | epoxomicin 0.033 | [3] -0.015 | [4] -0.066 | [5] -0.005 | rosiglitazone 0.021 | [6] -0.089 | [7] -0.029 | saracatinib -0.006 | sotrastaurin 0.012 | alvocidib -0.06 | Tubastatin A -0.019 | [8] 0.116 | defactinib 0.011 | rucaparib -0.014 | [9] -0.018 | encorafenib -0.017 | [10] 0

UBE2N (UniProt P61088)
inactive: [1] -0.011 | volasertib -0.008 | [2] -0.01 | epoxomicin 0.049 | [3] 0.008 | [4] 0.083 | [5] 0.013 | rosiglitazone 0.04 | [6] -0.021 | [7] -0.054 | saracatinib -0.002 | sotrastaurin -0.021 | alvocidib -0.017 | Tubastatin A 0.037 | [8] -0.027 | defactinib 0.024 | rucaparib -0.043 | [9] 0.004 | encorafenib -0.018 | [10] -0.032

Next part.

TXNDC15 (UniProt Q96J42)
inactive: [1] 0.014 | volasertib 0.063 | [2] -0.097 | epoxomicin 0.143 | [3] 0.033 | [4] 0.083 | [5] 0.11 | rosiglitazone -0.032 | [6] -0.106 | [7] 0.07 | saracatinib -0.037 | sotrastaurin 0.002 | alvocidib -0.011 | Tubastatin A 0.074 | [8] -0.038 | defactinib 0.039 | rucaparib -0.083 | [9] 0.287 | encorafenib 0.01 | [10] -0.093
